Reference: PubChem BioAssay AID1259327 (Drosophila RNAi Screening Center, 2017)
Shown is an unselected part of about 3,100 reagents. 378 of all reagents (12%) were called active. 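Hits include both directions; z-score sign shows ATP rise or fall; raw luminescence values are not plate-normalised.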 The numbers tell different reagents against one gene apart. A plus sign joins genes that one reagent is predicted to hit. Reagent sequences are not shown. Not stated in the record: the amount of reagent.

- Screen: 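Baseline ATP after transmembrane-protein gene knock-down with water vehicle only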
- System: Drosophila S2R+ cells
- Reagents: long dsRNA against Drosophila genes
- Timing: 5 days (water added on day 4, read one day later)
- Conditions: water added as vehicle, no metal, one day before read-out
- Detection: 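Total ATP measured by luciferase light, scaled to plate mean, duplicates averaged, then z-scored across plates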
- Reading the numbers: ATP z-score: higher = more total ATP than typical wells; ATP luminescence: higher = more total ATP
- Hit rule: 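a hit is any knock-down whose absolute ATP z-score is greater than 1.5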
- Calls: active = hit: ATP up or down; inactive = no clear ATP change

target	reagent no.	ATP z-score, duplicate mean	ATP luminescence, replicate 1 (RLU)	ATP luminescence, replicate 2 (RLU)	activity call
Or1a	1	-0.768	5.71e5	6.64e5	inactive
Or1a	2	1.28	6.10e5	4.70e5	inactive
SsRbeta	1	0.468	7.06e5	8.58e5	inactive
CG15814	1	0.864	8.62e5	7.30e5	inactive
CG15814	2	-2.99	3.22e5	3.37e5	active
Tsp42Ei	1	-0.839	5.57e5	5.30e5	inactive
Tsp42Ei	2	-0.68	8.91e5	1.02e6	inactive
TM9SF3	1	0.00966	9.57e5	8.40e5	inactive
Sply	1	-1.52	5.31e5	5.97e5	active
Sply	2	-0.824	9.12e5	9.52e5	inactive
ACXB	1	-0.393	9.09e5	7.15e5	inactive
ACXB	2	1.2	5.23e5	5.72e5	inactive
Or19a + Or19b	1	-2.05	4.02e5	5.44e5	active
Or19a + Or19b	2	-0.622	4.62e5	3.82e5	inactive
ppk7	1	0.368	7.38e5	7.91e5	inactive
Or42a	1	-0.965	5.43e5	5.21e5	inactive
CG7806	1	1.35	4.56e5	6.99e5	inactive
CG7806	2	1.6	5.42e5	6.43e5	active
Vang	1	-0.525	5.58e5	5.86e5	inactive
CG18281	1	0.88	9.04e5	7.44e5	inactive
CG18281	2	0.022	5.64e5	6.10e5	inactive
CG6356	1	-0.69	2.78e5	6.63e5	inactive
CG6356	2	-1.13	3.94e5	4.06e5	inactive
tor	1	-0.0798	5.50e5	6.75e5	inactive
tor	2	1.52	6.87e5	7.31e5	active
tor	3	-1.01	5.36e5	4.52e5	inactive
CG30344	1	-1.63	7.67e5	8.89e5	active
CG42329	1	-0.636	5.89e5	6.89e5	inactive
Trp1	1	1.24	8.26e5	8.89e5	inactive
Trp1	2	0.151	6.94e5	1.05e6	inactive
mthl4	1	-0.91	5.23e5	5.51e5	inactive
CG1265	1	-0.83	8.03e5	7.72e5	inactive
CG1265	2	0.951	4.99e5	5.32e5	inactive
CG42287	1	-1.58	3.44e5	3.95e5	active
CG11353	1	0.201	6.66e5	8.42e5	inactive
CG11353	2	-2.03	3.22e5	3.34e5	active
CG4822	1	0.416	4.86e5	5.31e5	inactive
jef	1	0.394	7.43e5	5.67e5	inactive
jef	2	0.0971	7.99e5	8.24e5	inactive
Ir76b	1	1.1	1.14e6	9.44e5	inactive
Ir76b	2	0.261	4.31e5	5.37e5	inactive
CG5687	1	-0.151	6.70e5	7.61e5	inactive
CG5687	2	-1.78	3.32e5	3.58e5	active
Or67c	1	-0.311	9.11e5	8.02e5	inactive
Or67c	2	-1	3.28e5	4.96e5	inactive
Zip48C	1	0.105	7.31e5	7.54e5	inactive
Zip48C	2	0.597	5.28e5	4.83e5	inactive
